From the supplement of paper PMC11098740
Some of the results follow. Many values rest on one well or one pass, so single values are uncertain.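 Test system: a mixed pool of 41 HAP1 clones in which 61 cancer-associated proteins carry fluorescent tags inserted into introns, and each clone is identified from its image pattern. Read-outs are compared with DMSO-treated control wells. The BRD4 degrader dBET6 served as the positive control.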

Protein sequences, listed by entry. Tags and fused reporters are not part of them.
UniProt O14980, whole entry: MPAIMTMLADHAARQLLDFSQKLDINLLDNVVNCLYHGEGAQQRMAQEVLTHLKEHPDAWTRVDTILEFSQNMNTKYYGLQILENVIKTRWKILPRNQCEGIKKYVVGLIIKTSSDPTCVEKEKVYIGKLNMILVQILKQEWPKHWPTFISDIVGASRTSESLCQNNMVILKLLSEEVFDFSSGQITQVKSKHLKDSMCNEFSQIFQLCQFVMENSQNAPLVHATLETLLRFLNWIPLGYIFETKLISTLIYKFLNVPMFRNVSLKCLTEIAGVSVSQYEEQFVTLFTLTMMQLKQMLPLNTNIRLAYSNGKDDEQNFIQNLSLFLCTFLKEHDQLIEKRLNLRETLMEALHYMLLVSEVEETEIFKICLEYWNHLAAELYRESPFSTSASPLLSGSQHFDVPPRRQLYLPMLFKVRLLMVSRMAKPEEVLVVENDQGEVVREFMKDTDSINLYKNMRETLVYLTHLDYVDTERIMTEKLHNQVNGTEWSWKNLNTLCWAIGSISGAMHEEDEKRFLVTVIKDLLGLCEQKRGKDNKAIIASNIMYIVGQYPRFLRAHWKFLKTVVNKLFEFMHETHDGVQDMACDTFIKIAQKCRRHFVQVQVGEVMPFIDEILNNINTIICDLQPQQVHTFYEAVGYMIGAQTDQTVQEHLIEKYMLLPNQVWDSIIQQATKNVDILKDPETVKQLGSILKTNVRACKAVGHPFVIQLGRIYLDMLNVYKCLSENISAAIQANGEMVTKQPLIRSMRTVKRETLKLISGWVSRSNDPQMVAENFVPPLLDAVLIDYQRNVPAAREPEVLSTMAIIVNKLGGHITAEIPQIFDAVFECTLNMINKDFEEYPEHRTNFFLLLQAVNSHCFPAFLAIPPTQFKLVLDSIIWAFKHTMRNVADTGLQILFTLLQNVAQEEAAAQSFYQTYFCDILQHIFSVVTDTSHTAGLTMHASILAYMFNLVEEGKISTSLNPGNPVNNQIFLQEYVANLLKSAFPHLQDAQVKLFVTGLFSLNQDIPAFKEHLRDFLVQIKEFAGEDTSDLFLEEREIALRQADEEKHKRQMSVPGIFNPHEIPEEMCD

Target: XPO1 (intron 15 mScarlet tag, HAP1) (UniProt O14980)
Assay: XPO1 fluorescence intensity change vs DMSO (log2 fold change); higher = more XPO1 protein
Details: 6 h

| Compound | XPO1 fluorescence intensity change (log2) |
| --- | --- |
| CCc1ccccc1N1CCN(C(=O)c2cc(OC)c(OC)c(OC)c2)CC1 (1 µM) | -0.0357 |
| Cc1cc(C)cc(OCCOC(=O)c2cc(S(N)(=O)=O)ccc2Cl)c1 (10 µM) | 0.0706 |
| COc1cc(CCl)c([N+](=O)[O-])cc1OC(F)F (10 µM) | 0.211 |
| CC(C)(C)P(=NC(=S)NCCCO)(N1CCCCCC1)N1CCCCCC1 (0.1 µM) | 0.0484 |
| COC(=O)Nc1nc2cc(C(=O)c3cccs3)ccc2[nH]1 [nocodazole] (10 µM) | -0.196 |
| COc1ccc(C(=O)Nc2ncc(Cc3ccc(C)cc3)s2)cc1OC (10 µM) | -0.443 |
| CCCCn1c(=O)[nH]c(=O)c2c1nc(CCl)n2CC (10 µM) | 0.0953 |
| COC(=O)c1c(NC(=O)CCCl)sc2c1CCCC2 (10 µM) | -0.228 |
| Cc1ccc(Cl)cc1N1CCN(C(=O)NCc2ccc(F)cc2)CC1 (10 µM) | 0.0696 |
| CC(C)(C)c1cc(NN)n2ncc(-c3ccccc3)c2n1 (10 µM) | 0.209 |
| COc1ccc(/C=C(\C(=O)c2cccs2)N2C=CC=CC2=C(C#N)C#N)cc1 (1 µM) | 0.0774 |
| Cn1c(=O)n(C)c2cc(NC(=O)c3ccc4cc[nH]c4c3)ccc21 (10 µM) | 0.057 |
| Cc1cnc(NC(=O)Cc2ccc(-n3cccc3)cc2)s1 (1 µM) | -0.0529 |
| CCOc1ccccc1C1CC(=O)Nc2cc3c(cc21)OCO3 (stereo not drawn) (10 µM) | -0.0933 |
| COc1ccc(S(=O)(=O)Nc2ccc(-c3ccccc3)cc2)c(C)c1C (10 µM) | 0.115 |
| O=c1[nH]c2c(c3ccccc13)C(c1ccccc1)N1C=CN=CC1=N2 (stereo not drawn) (10 µM) | -0.0274 |
| COc1ccc2nc(NCc3ccccc3)[nH]c2c1 (10 µM) | 0.144 |
| CC(C)NCC(O)Cn1c2ccc(Cl)cc2c2cc(Cl)ccc21 (stereo not drawn) (1 µM) | 0.212 |
| O=S(=O)(Cc1ccccc1)NCCCNc1ccc(C(F)(F)F)cn1 (1 µM) | 0.0186 |
| ClCc1nc2cc(Cl)ccc2n1Cc1ccccc1 (10 µM) | -0.0566 |

Grouped by structure, those above containing a thiophene ring, fused or not

| Compound | XPO1 fluorescence intensity change (log2) |
| --- | --- |
| COC(=O)Nc1nc2cc(C(=O)c3cccs3)ccc2[nH]1 [nocodazole] (10 µM) | -0.196 |
| COC(=O)c1c(NC(=O)CCCl)sc2c1CCCC2 (10 µM) | -0.228 |
| COc1ccc(/C=C(\C(=O)c2cccs2)N2C=CC=CC2=C(C#N)C#N)cc1 (1 µM) | 0.0774 |

(continued)

| Compound | XPO1 fluorescence intensity change (log2) |
| --- | --- |
| CS(=O)(=O)c1ccc(-n2nnnc2CCl)cc1 (0.1 µM) | 0.0644 |
| Cc1noc(C)c1CSc1nc2sccc2c(=O)n1-c1ccccc1 (1 µM) | -0.00146 |
| O=C(Nc1nc(-c2ccccn2)cs1)c1cnn(Cc2ccccc2)c1 (10 µM) | -0.00774 |
| CCOC(=O)C1=C(C)NC(SC)=C(C#N)C1CC(C)C (stereo not drawn) (0.1 µM) | -0.139 |
| CCOC(=O)NCC(=O)NCCc1ccc(C(C)(C)C)cc1 (10 µM) | -0.136 |
| O=C(Nc1ccc(N2CCCC2)cn1)c1cccc(Cl)c1 (10 µM) | -0.051 |
| c1ccc2c(NC3CCCCCC3)nsc2c1 (10 µM) | 0.0714 |
| CNc1nc(-c2ccc3c(N)n[nH]c3c2)cc(N2C[C@@H](C(=O)NC3CCCCC3)CC[C@H]2C)n1 (20 µM) | -0.0633 |
| Nc1nccnc1C(=O)Nc1ccc(SC2CCCC2)cc1 (1 µM) | -0.091 |
| CCOC(=O)C1=C(CCl)NC(=O)NC1c1ccc(Cl)cc1 (stereo not drawn) (10 µM) | -0.0545 |
| C=CCNC1=C2C[C@@H](C)C[C@H](OC)[C@H](O)[C@@H](C)/C=C(\C)[C@H](OC(N)=O)[C@@H](OC)/C=C\C=C(/C)C(=O)NC(=CC1=O)C2=O (10 µM) | -0.246 |
| Cc1cn([C@H]2C[C@H](O)[C@@H](CO)O2)c(=O)[nH]c1=O [thymidine] (10 µM) | 0.0988 |
| Cc1cccc(C)c1OCC(=O)Nc1ccc(C2(C)NC(=O)NC2=O)cc1 (stereo not drawn) (10 µM) | 0.144 |
| CCOC(=O)C1=C(CCl)NC(=O)NC1c1ccc(C)o1 (stereo not drawn) (10 µM) | -0.245 |
| Cc1cc(N(C)Cc2ccccc2Br)nc(N)n1 (10 µM) | 0.138 |
| CC1(C)CCC(CN2CCN(c3ccc(C(=O)NS(=O)(=O)c4ccc(NCC5CCOCC5)c([N+](=O)[O-])c4)c(Oc4cnc5[nH]ccc5c4)c3)CC2)=C(c2ccc(Cl)cc2)C1 (10 µM) | -0.292 |
| N#CC1=C(N)Oc2c(ccc3cccnc23)C1c1ccccc1 (stereo not drawn) (0.1 µM) | -0.144 |
| CN(CCO)CC(O)Cn1c2ccc(Br)cc2c2cc(Br)ccc21 (stereo not drawn) (10 µM) | -0.00186 |
| FC(F)(F)c1ccc(-n2nnnc2CCl)cc1 (10 µM) | -0.254 |

Target: BRD4 (intron 10 mScarlet tag, HAP1) (UniProt O60885)
Assay: BRD4 median nuclear fluorescence intensity change vs DMSO (log2 fold change); higher = more BRD4 protein
Details: 6 h

| Compound | BRD4 median nuclear fluorescence intensity change (log2) |
| --- | --- |
| CCc1ccccc1N1CCN(C(=O)c2cc(OC)c(OC)c(OC)c2)CC1 (1 µM) | 0.0261 |
| Cc1cc(C)cc(OCCOC(=O)c2cc(S(N)(=O)=O)ccc2Cl)c1 (10 µM) | 0.0505 |
| COc1cc(CCl)c([N+](=O)[O-])cc1OC(F)F (10 µM) | -0.0219 |
| CC(C)(C)P(=NC(=S)NCCCO)(N1CCCCCC1)N1CCCCCC1 (0.1 µM) | 0.0122 |
| COC(=O)Nc1nc2cc(C(=O)c3cccs3)ccc2[nH]1 [nocodazole] (10 µM) | -0.0164 |
| COc1ccc(C(=O)Nc2ncc(Cc3ccc(C)cc3)s2)cc1OC (10 µM) | -0.0583 |
| CCCCn1c(=O)[nH]c(=O)c2c1nc(CCl)n2CC (10 µM) | 0.0623 |
| COC(=O)c1c(NC(=O)CCCl)sc2c1CCCC2 (10 µM) | 0.201 |
| Cc1ccc(Cl)cc1N1CCN(C(=O)NCc2ccc(F)cc2)CC1 (10 µM) | 0.0241 |
| CC(C)(C)c1cc(NN)n2ncc(-c3ccccc3)c2n1 (10 µM) | 0.151 |
| COc1ccc(/C=C(\C(=O)c2cccs2)N2C=CC=CC2=C(C#N)C#N)cc1 (1 µM) | 0.0869 |
| Cn1c(=O)n(C)c2cc(NC(=O)c3ccc4cc[nH]c4c3)ccc21 (10 µM) | 0.105 |
| Cc1cnc(NC(=O)Cc2ccc(-n3cccc3)cc2)s1 (1 µM) | 0.0664 |
| CCOc1ccccc1C1CC(=O)Nc2cc3c(cc21)OCO3 (stereo not drawn) (10 µM) | 0.0466 |
| COc1ccc(S(=O)(=O)Nc2ccc(-c3ccccc3)cc2)c(C)c1C (10 µM) | 0.0951 |
| O=c1[nH]c2c(c3ccccc13)C(c1ccccc1)N1C=CN=CC1=N2 (stereo not drawn) (10 µM) | -0.0284 |
| COc1ccc2nc(NCc3ccccc3)[nH]c2c1 (10 µM) | -0.00186 |
| CC(C)NCC(O)Cn1c2ccc(Cl)cc2c2cc(Cl)ccc21 (stereo not drawn) (1 µM) | 0.258 |
| O=S(=O)(Cc1ccccc1)NCCCNc1ccc(C(F)(F)F)cn1 (1 µM) | -0.0217 |
| ClCc1nc2cc(Cl)ccc2n1Cc1ccccc1 (10 µM) | 0.039 |

| Compound | BRD4 median nuclear fluorescence intensity change (log2) |
| --- | --- |
| CS(=O)(=O)c1ccc(-n2nnnc2CCl)cc1 (0.1 µM) | 0.00663 |
| Cc1noc(C)c1CSc1nc2sccc2c(=O)n1-c1ccccc1 (1 µM) | 0.212 |
| O=C(Nc1nc(-c2ccccn2)cs1)c1cnn(Cc2ccccc2)c1 (10 µM) | 0.118 |
| CCOC(=O)C1=C(C)NC(SC)=C(C#N)C1CC(C)C (stereo not drawn) (0.1 µM) | 0.0339 |
| CCOC(=O)NCC(=O)NCCc1ccc(C(C)(C)C)cc1 (10 µM) | 0.0906 |
| O=C(Nc1ccc(N2CCCC2)cn1)c1cccc(Cl)c1 (10 µM) | -0.0922 |
| c1ccc2c(NC3CCCCCC3)nsc2c1 (10 µM) | 0.0228 |
| CNc1nc(-c2ccc3c(N)n[nH]c3c2)cc(N2C[C@@H](C(=O)NC3CCCCC3)CC[C@H]2C)n1 (20 µM) | 0.0297 |
| Nc1nccnc1C(=O)Nc1ccc(SC2CCCC2)cc1 (1 µM) | -0.0467 |
| CCOC(=O)C1=C(CCl)NC(=O)NC1c1ccc(Cl)cc1 (stereo not drawn) (10 µM) | 0.0963 |
| C=CCNC1=C2C[C@@H](C)C[C@H](OC)[C@H](O)[C@@H](C)/C=C(\C)[C@H](OC(N)=O)[C@@H](OC)/C=C\C=C(/C)C(=O)NC(=CC1=O)C2=O (10 µM) | 0.00237 |
| Cc1cn([C@H]2C[C@H](O)[C@@H](CO)O2)c(=O)[nH]c1=O [thymidine] (10 µM) | -0.00943 |
| Cc1cccc(C)c1OCC(=O)Nc1ccc(C2(C)NC(=O)NC2=O)cc1 (stereo not drawn) (10 µM) | 0.175 |
| CCOC(=O)C1=C(CCl)NC(=O)NC1c1ccc(C)o1 (stereo not drawn) (10 µM) | -0.0187 |
| Cc1cc(N(C)Cc2ccccc2Br)nc(N)n1 (10 µM) | 0.17 |
| CC1(C)CCC(CN2CCN(c3ccc(C(=O)NS(=O)(=O)c4ccc(NCC5CCOCC5)c([N+](=O)[O-])c4)c(Oc4cnc5[nH]ccc5c4)c3)CC2)=C(c2ccc(Cl)cc2)C1 (10 µM) | 0.0158 |
| N#CC1=C(N)Oc2c(ccc3cccnc23)C1c1ccccc1 (stereo not drawn) (0.1 µM) | 0.083 |
| CN(CCO)CC(O)Cn1c2ccc(Br)cc2c2cc(Br)ccc21 (stereo not drawn) (10 µM) | 0.0378 |
| FC(F)(F)c1ccc(-n2nnnc2CCl)cc1 (10 µM) | -0.0364 |
